No constants are given. Whether binding was seen depends on the method and setting.
Molecular target: recombinant His-HSC70 (human) (UniProt P11142)
Experiment: SEC; recombinant proteins at different molar ratios, 20 min on ice in BC50 (20 mM Tris-HCl pH 7.5, 50 mM KCl, 0.2 mM EDTA, 10% glycerol) with 0.05% NP-40; Superdex 200 10/300 GL; fractions by western blot; both purified

The chains behind the UniProt entries cited, without tags or fusion partners.
UniProt P11142: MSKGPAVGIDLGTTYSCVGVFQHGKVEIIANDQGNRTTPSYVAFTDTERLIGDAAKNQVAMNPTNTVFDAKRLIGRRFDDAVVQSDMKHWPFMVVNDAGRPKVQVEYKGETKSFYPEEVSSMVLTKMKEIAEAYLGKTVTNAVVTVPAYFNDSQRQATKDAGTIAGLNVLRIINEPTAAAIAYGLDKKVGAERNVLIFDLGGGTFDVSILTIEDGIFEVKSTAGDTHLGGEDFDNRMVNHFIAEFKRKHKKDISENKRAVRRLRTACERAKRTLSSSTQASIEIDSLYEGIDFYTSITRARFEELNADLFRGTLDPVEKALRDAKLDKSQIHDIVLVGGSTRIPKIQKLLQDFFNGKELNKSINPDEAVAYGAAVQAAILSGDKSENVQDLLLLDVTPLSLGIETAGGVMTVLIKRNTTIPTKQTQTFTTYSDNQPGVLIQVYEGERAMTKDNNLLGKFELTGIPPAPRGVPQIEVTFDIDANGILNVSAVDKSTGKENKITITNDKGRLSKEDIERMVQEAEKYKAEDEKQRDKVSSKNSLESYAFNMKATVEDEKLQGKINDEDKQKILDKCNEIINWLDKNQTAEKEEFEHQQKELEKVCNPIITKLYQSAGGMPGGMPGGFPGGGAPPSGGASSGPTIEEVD

In the case of “recombinant His-tNASP (from UniProt P49321-1 1-788)”, the binding is reported as “no binding”.

Reference: PMC8887419
